Results reported in the supplement of paper PMC8732350.
Where a name gives a salt, the structure may show the parent alone. ± gives the standard deviation of the averaged measurements. The list shows a part of the results. Most values lie within the scatter of the assay; repeated measurements hardly agree.

Tested on: A549
Experiment: surface PD-L1 immunofluorescence intensity relative to IFN-gamma-only control (ratio); higher = more PD-L1 expression
Details: 10 µM; exposure time 24 h; IFN-gamma 100 ng/mL

Structure (SMILES) | surface PD-L1 immunofluorescence intensity
CC(C)CC(NC(=O)OCC1c2ccccc2-c2ccccc21)C(=O)O (stereo not given) | 1.05
CNNCc1ccc(C(=O)NC(C)C)cc1 [Procarbazine hydrochloride] | 0.99
NC(=O)c1ncn([C@@H]2O[C@H](CO)[C@@H](O)[C@H]2O)c1N [Acadesine] | 1.04 ± 0.03
CC1=C(/C=C/C(C)=C/C=C/C(C)=C/C(=O)Nc2ccc(O)cc2)C(C)(C)CCC1 [Fenretinide] | 1.23
CC(=O)Oc1cc(C(C)C)c(OCCN(C)C)cc1C [Moxisylyte hydrochoride] | 0.815
CC(c1cc2ccccc2s1)N(O)C(N)=O (stereo not given) [Zileuton] | 0.974
C[C@@H]1C(=O)O[C@H]2C[C@@]34[C@H]5C[C@@H](C(C)(C)C)[C@]36[C@@H](OC(=O)[C@@H]6O)O[C@@]4(C(=O)O5)[C@]21O [Ginkgolide A] | 1.18
CC[N+](C)(CC)CC(=O)Nc1c(C)cccc1C [N-Methyllidocaine iodide] | 1.14
CC[C@@H]1Cn2c(c3nc(-c4ccccc4)nc-3n(C)c2=O)N1 | 1.03
CCOC(=O)c1c(C)[nH]c2ccc3c(c12)CN1CCc2cc(OC)ccc2C1O3 (stereo not given) | 0.927
C[C@@H]1CN(c2c(F)c(N)c3c(=O)c(C(=O)O)cn(C4CC4)c3c2F)C[C@H](C)N1 [Sparfloxacin] | 0.948
CCn1cc(C(=O)O)c(=O)c2cc(F)c(N3CCN(C)CC3)cc21 [Pefloxacine] | 0.92
CC#CCOC(=O)c1c(C)nc2sc3c(c2c1N)CCC(O)C3 (stereo not given) | 1.08
NC(=O)c1ccncc1 [Isonicotinamide] | 0.957
CCn1cc(C(=O)O)c(=O)c2cc(F)c(N3CCNC(C)C3)c(F)c21 (stereo not given) [Lomefloxacin hydrochloride] | 0.875
CS(=O)(=O)Nc1ccc([N+](=O)[O-])cc1Oc1ccccc1 [Nimesulide] | 0.949 ± 0.027
COc1cc(C)nc(-n2nc(C)cc2OC)n1 [Epirizole] | 0.893
O=C(O)C1=CCNCC1 [Isoguvacine hydrochloride] | 1.09
CCn1c(=O)[nH]c2ccccc21 | 1.12
CC1(C)[C@@H](O[C@H]2O[C@H](C(=O)O)[C@@H](O)[C@H](O)[C@H]2O[C@@H]2O[C@H](C(=O)O)[C@@H](O)[C@H](O)[C@H]2O)CC[C@]2(C)[C@H]3C(=O)C=C4[C@@H]5C[C@@](C)(C(=O)O)CC[C@]5(C)CC[C@@]4(C)[C@]3(C)CC[C@@H]12 [Glycyrrhizic acid] | 0.996

3 entries picked at random from the list so far, as already listed:
Structure (SMILES) | surface PD-L1 immunofluorescence intensity
C[C@@H]1CN(c2c(F)c(N)c3c(=O)c(C(=O)O)cn(C4CC4)c3c2F)C[C@H](C)N1 [Sparfloxacin] | 0.948
CCn1cc(C(=O)O)c(=O)c2cc(F)c(N3CCN(C)CC3)cc21 [Pefloxacine] | 0.92
CC1=C(/C=C/C(C)=C/C=C/C(C)=C/C(=O)Nc2ccc(O)cc2)C(C)(C)CCC1 [Fenretinide] | 1.23

Further records.

Structure (SMILES) | surface PD-L1 immunofluorescence intensity
CC1(C)[C@@H](O[C@H]2O[C@H](C(=O)O)[C@@H](O)[C@H](O)[C@H]2O[C@@H]2O[C@H](C(=O)O)[C@@H](O)[C@H](O)[C@H]2O)CC[C@]2(C)[C@H]3C(=O)C=C4[C@@H]5C[C@@](C)(C(=O)O)CC[C@]5(C)CC[C@@]4(C)[C@]3(C)CC[C@@H]12 [Ammonium Glycyrrhizinate (AMGZ)] | 0.929
CCOC(=O)CCC(=O)O[C@H]1[C@H](O[C@@H]2[C@@H](C)[C@H](O[C@H]3C[C@@](C)(OC)[C@@H](O)[C@H](C)O3)[C@@H](C)C(=O)O[C@H](CC)[C@@](C)(O)[C@H](O)[C@@H](C)C(=O)[C@H](C)C[C@@]2(C)O)O[C@H](C)C[C@@H]1N(C)C [Erythromycin Ethylsuccinate] | 0.957
COc1cc(NC(=O)c2ccc(-c3ccc(Cl)cc3)o2)cc(OC)c1 | 0.993
Nc1ncnc2nc(-c3ccc(N4CCOCC4)nc3)cc(-c3cccc(Br)c3)c12 [ABT 702 dihydrochloride] | 0.985
C[C@]12C=CC(=O)C=C1CC[C@@H]1[C@@H]2C(=O)C[C@@]2(C)[C@H]1CC[C@]2(O)C(=O)CO [Prednisone] | 0.85
C[C@]12C=CC(=O)C=C1CC[C@@H]1[C@@H]2C(=O)C[C@@]2(C)[C@H]1CC[C@]2(O)C(=O)CO [Prednisone (Adasone)] | 1.04
C=CCn1c(=O)n([C@@H]2O[C@H](CO)[C@@H](O)[C@H]2O)c2nc(N)[nH]c(=O)c21 | 0.852
C[C@]12C=CC(=O)C=C1CC[C@@H]1C2=CC[C@]2(C)[C@@H](C(=O)CN3CCN(c4cc(N5CCCC5)nc(N5CCCC5)n4)CC3)CC[C@@H]12 | 0.948
Cc1ccc(/C(=C\CN2CCCC2)c2ccccn2)cc1 [trans-Triprolidine hydrochloride] | 1.04
Cc1ccc(/C(=C\CN2CCCC2)c2ccccn2)cc1 [Triprolidine hydrochloride] | 0.899
CC(C)(O/N=C(\C(=O)N[C@@H]1C(=O)N2C(C(=O)[O-])=C(C[n+]3ccccc3)CS[C@H]12)c1csc(N)n1)C(=O)O [Ceftazidime pentahydrate] | 1.04
C=C1/C(=C\C=C2/CCC[C@]3(C)[C@@H]([C@H](C)CCCC(C)(C)O)CC[C@@H]23)C[C@@H](O)C[C@@H]1O [1a,25-Dihydroxyvitamin D3] | 1.09
C=C1/C(=C\C=C2/CCC[C@]3(C)[C@@H]([C@H](C)CCCC(C)(C)O)CC[C@@H]23)C[C@@H](O)C[C@@H]1O [Calcitriol (Rocaltrol)] | 1.16
Cc1c(Cl)cccc1Nc1ncccc1C(=O)O [Clonixin Lysinate] | 1.01
OC[C@H]1O[C@@H](OCCc2ccc(O)cc2)[C@H](O)[C@@H](O)[C@@H]1O [Salidroside (Rhodioloside)] | 1.05
CNCCC=C1c2ccccc2CCc2ccccc21 [Nortriptyline hydrochloride] | 0.796
C[C@H]1[C@H](NC(=O)/C(=N\OC(C)(C)C(=O)O)c2csc(N)n2)C(=O)N1S(=O)(=O)O [Aztreonam (Azactam, Cayston)] | 1.07
C[C@H]1[C@H](NC(=O)/C(=N\OC(C)(C)C(=O)O)c2csc(N)n2)C(=O)N1S(=O)(=O)O [Aztreonam] | 1.04
CC1=C(/C=C/C(C)=C/C=C/C(C)=C/C(=O)O)C(C)(C)CCC1O (stereo not given) [4-Hydroxyretinoic acid] | 1.06
Cc1ccc(C(=O)Nc2ccc(S(=O)(=O)O)c3cc(S(=O)(=O)O)cc(S(=O)(=O)O)c23)cc1NC(=O)c1cccc(NC(=O)Nc2cccc(C(=O)Nc3cc(C(=O)Nc4ccc(S(=O)(=O)O)c5cc(S(=O)(=O)O)cc(S(=O)(=O)O)c45)ccc3C)c2)c1 [Suramin hexasodium salt] | 1.11
